These are yes or no findings as the source states them, for the method shown. In cells and extracts the contact can be indirect. Binding can be weak; no strength is given.

Experiment [1] addresses XPF-ERCC1 endonuclease (wild type heterodimer) (human). Put plainly: co-purification.
Experiment [2] deals with XPF(323-326Δ)-ERCC1 (Fanconi anaemia mutant heterodimer) (human). Nature of the experiment: co-purification.

B1: SLX4 NTD (residues 1-758) (domain or fragment, UniProt Q8IY92-1 1-758)
chain: MKLSVNEAQLGFYLGSLSHLSACPGIDPRSSEDQPESLKTGQMMDESDEDFKELCASFFQRVKKHGIKEVSGERKTQKAASNGTQIRSKLKRTKQTATKTKTLQGPAEKKPPSGSQAPRTKKQRVTKWQASEPAHSVNGEGGVLASAPDPPVLRETAQNTQTGNQQEPSPNLSREKTRENVPNSDSQPPPSCLTTAVPSPSKPRTAQLVLQRMQQFKRADPERLRHASEECSLEAAREENVPKDPQEEMMAGNVYGLGPPAPESDAAVALTLQQEFARVGASAHDDSLEEKGLFFCQICQKNLSAMNVTRREQHVNRCLDEAEKTLRPSVPQIPECPICGKPFLTLKSRTSHLKQCAVKMEVGPQLLLQAVRLQTAQPEGSSSPPMFSFSDHSRGLKRRGPTSKKEPRKRRKVDEAPSEDLLVAMALSRSEMEPGAAVPALRLESAFSERIRPEAENKSRKKKPPVSPPLLLVQDSETTGRQIEDRVALLLSEEVELSSTPPLPASRILKEGWERAGQCPPPPERKQSFLWEGSALTGAWAMEDFYTARLVPPLVPQRPAQGLMQEPVPPLVPPEHSELSERRSPALHGTPTAGCGSRGPSPSASQREHQALQDLVDLAREGLSASPWPGSGGLAGSEGTAGLDVVPGGLPLTGFVVPSQDKHPDRGGRTLLSLGLLVADFGAMVNNPHLSDVQFQTDSGEVLYAHKFVLYARCPLLIQYVNNEGFSAVEDGVLTQRVLLGDVSTEAARTFLHYLYTA
Regarding B1, the binding result in experiment [1] and in experiment [2] was “binds” in each case.
